From patent publication US20250074957A1
No constants are given. Whether binding was seen depends on the method and setting. Some entries that bind do so weakly or less than the wild type.

Sequences of proteins named here, by UniProt entry; tags and fusion partners are left off. A change or cut given only in a name is not applied to a line headed by its entry.
UniProt Q96SW2: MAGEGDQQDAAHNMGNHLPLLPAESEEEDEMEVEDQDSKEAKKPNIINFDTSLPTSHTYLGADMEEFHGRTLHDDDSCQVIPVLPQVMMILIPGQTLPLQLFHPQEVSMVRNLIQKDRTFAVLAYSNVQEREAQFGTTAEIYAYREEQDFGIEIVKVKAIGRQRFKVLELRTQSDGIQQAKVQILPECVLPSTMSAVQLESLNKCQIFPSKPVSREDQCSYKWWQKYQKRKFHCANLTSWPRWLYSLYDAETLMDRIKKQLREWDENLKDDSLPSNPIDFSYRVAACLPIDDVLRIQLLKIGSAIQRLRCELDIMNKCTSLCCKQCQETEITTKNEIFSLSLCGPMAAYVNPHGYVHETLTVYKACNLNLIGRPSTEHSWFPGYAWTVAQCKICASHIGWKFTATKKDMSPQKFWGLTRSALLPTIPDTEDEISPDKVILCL

Tests used:
[1] = target: FMC63-CD28-IKZF3 (HaloTag fusion for BRET); assay: NanoBRET in 293T cells with pomalidomide
[2] = target: IKZF3 degron polypeptide, amino acids 130-189 A153M (HaloTag fusion for BRET) (Homo sapiens); assay: NanoBRET in 293T cells, 10 µM MG132, 1 µM pomalidomide or DMSO
[3] = target: IKZF3 degron polypeptide, amino acids 130-189 A153M (HaloTag fusion for BRET) (Homo sapiens); assay: NanoBRET at 1 µM pomalidomide and across a range of pomalidomide concentrations

| binding [1] | binding [2] | binding [3] | Substance |
| --- | --- | --- | --- |
| binds |  |  | minCRBN3-NLuc (from UniProt Q96SW2 2-442) |
|  | binds | binds | CRBN V388A (Nanoluciferase fusion for BRET) (from UniProt Q96SW2 1-442) |
